Among the data in patent publication US20230203162A1 are binding values, retold here.

No constants are given. Whether binding was seen depends on the method and setting. Binding can be weak; no strength is given.

Test [1] concerns the target recombinant cynomolgus monkey MSLN (purchased from Sino Biological) (cynomolgus monkey). The experiment in a line: SPR. Background: In SPR one partner is held on a chip, and binding of the other changes the refractive index at the surface.
In test [2] the target is cynomolgus monkey MSLN on recombinant CHO cell line (cynomolgus monkey). The experiment in a line: cELISA on CHO cells expressing cynomolgus monkey MSLN.

B1: anti-MSLN scFv PRO1783 (scFv)
scFv: DIQMTQSPSSLSASVGDRVTITCQASQNIYSNLAWYQQKPGKAPKLLIYDASDLASGVPSRFSGSGSGTDFTLTISSLQPEDFATYYCQQVRSSSDIDNPFGTGTKVTVLGGGGGSGGGGSGGGGSGGGGSQVQLVESGGGLVQPGGSLRLSCAASGFSLSSYAMGWVRQAPGKGLEWIGYISTINNTYYASWAKGRFTISRDNSKNTVYLQMNSLRAEDTAVYYCAREIRSGWVDYGFSIWGQGTLVTVSS
Regarding B1, the binding result in test [1] and in test [2] was “binds” throughout.
